Experimental data reported in PubChem BioAssay AID2685 (National Center for Advancing Translational Sciences (NCATS), 2010).
The other results are listed elsewhere or left out. The main result of the screen is listed elsewhere. These columns were measured beside it and carry no call. The list favours compounds with an active or inconclusive main result. Words in brackets tell the shape of the fitted curve; partial curves, single points and poor fits give uncertain potencies.

Test: qHTS Assay for Lipid Storage Modulators in Drosophila S3 Cells;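 for cell number change: cells counted by Cell Tracker Red CMTPX staining in the red channel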
Details: BODIPY lipid droplet fluorescence, 18-24 h; for cell number change: measured here: cell count max response, cells fed with added oleic acid
Outline: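 Drosophila S3 cells got compounds at several concentrations plus oleic acid (400 uM solution). Laser-scanning cytometry with 488 nm excitation read lipid droplets at 500-530 nm and cells at 575-640 nm. Percent activity was relative to 20 uM Triacsin C.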

[1] = measured here: lipid fluorescence (Fed channel) AC50, cells fed with added oleic acid
[2] = measured here: cell number channel AC50, cells fed with added oleic acid

Structure (SMILES)	cell number change [%]	AC50 [1]	AC50 [2]
CCc1nnc(NC(=O)CCC(=O)Nc2ccc(Cl)cc2)s1	7.63	18.4 µM [falling, single point]	–
CCCC(=O)NC(c1ccco1)c1cc(Cl)c2cccnc2c1O (stereo not given)	-3.45	–	–
COCCN(CCOC)C(=O)CC(=O)N(CCOC)CCOC	4.08	0.116 µM [falling, full curve]	–
CCOC(=O)C1CCN(C(=O)CNC(=O)c2nn(-c3ccc(OC)cc3)c(=O)c3ccccc23)CC1	-4.96	4.11 µM [falling, full curve]	–
COc1ccccc1N1CCN(C(=O)CCC(=O)Nc2nnc(C(C)C)s2)CC1	-2.36	–	–
O=C(CCN1CCN(C/C=C/c2ccccc2)CC1)Nc1ccc(Cl)cc1	-47.9	–	0.259 µM [falling, full curve]
CN(CC(=O)Nc1cccc(F)c1)C(=O)c1ccc(C(=O)c2ccccc2)cc1	–	–	2.06 µM [rising, partial curve]
CCOc1ccccc1NC(=O)c1cc(S(=O)(=O)N2CCOCC2)ccc1C	–	0.58 µM [rising, single point]	–
COc1ccccc1C(=O)NCC(=O)NCC1(N2CCCCC2)CCCCC1	0.961	29.1 µM [rising, single point]	–
O=C(O)COc1ccccc1Cc1ccccc1	-15.7	0.651 µM [falling, full curve, poor fit]	0.184 µM [falling, full curve, poor fit]
CCOC(=O)c1c(NC(=O)Cn2nnc(-c3ccc(Cl)cc3)n2)sc(CC)c1C	–	–	0.164 µM [rising, full curve]
CCOC(=O)[C@H]1[C@H]2COc3ccc(C)cc3[C@@H]2N2C(=O)c3cc(OC)c(OC)cc3NC(=O)[C@@]12C	-24.2	20.6 µM [rising, partial curve, poor fit]	–
O=C(Nc1ccccc1C(=O)NCCCN1CCOCC1)c1ccc(F)cc1	-3.67	0.092 µM [rising, full curve, poor fit]	–
COc1ccc(NC(=S)N2CCN(C/C=C/c3ccccc3)CC2)c(OC)c1	5.42	3.26 µM [rising, full curve]	–
COc1ccc(Cn2c(=O)c3cccnc3n(Cc3ccc([N+](=O)[O-])cc3)c2=O)cc1	32.5	–	32.6 µM [rising, single point]
O=C(CCN=C1NS(=O)(=O)c2ccccc21)OCc1nnc(-c2ccccc2)o1	-50	–	29.1 µM [falling, single point]
O=C(COC(=O)c1ccc(S(=O)(=O)NCc2ccco2)cc1)Nc1ccc(OC(F)F)cc1	42.8	2.91 µM [falling, partial curve]	32.6 µM [rising, single point]
CCOCC(=O)Nc1sc2c(c1C(=O)OCC)CCCC2	-45.6	29.1 µM [falling, single point]	29.1 µM [falling, single point]
Cc1nc2[nH]c(=O)c3c(n2n1)NC1=C(C(=O)CC(C)(C)C1)C3c1ccc(F)cc1 (stereo not given)	41	6.51 µM [rising, partial curve, poor fit]	16.4 µM [rising, single point]
COc1ccc(C2C(=O)c3ccccc3C2=O)cc1	–	3.26 µM [rising, full curve, poor fit]	6.51 µM [rising, single point]

Structure (SMILES)	cell number change [%]	AC50 [1]	AC50 [2]
O=c1cc(-c2ccccc2Cl)oc2cccc(O)c12	23.6	1.64 µM [rising, partial curve, poor fit]	–
CC(C)CCC1(CCNC(=O)c2cccs2)CCOC(C)(C)C1 (stereo not given)	-44.8	0.116 µM [falling, full curve, poor fit]	0.00651 µM [falling, full curve, poor fit]
CCOC(=O)c1c(C)oc2cc(Br)c(OC(C)C(=O)OCC)cc12 (stereo not given)	-19.5	0.103 µM [rising, full curve, poor fit]	–
O=C1C=C(NC2CCCC2)CC(c2ccccc2)C1 (stereo not given)	–	5.8 µM [falling, full curve, poor fit]	–
CNC(=O)c1sc(Nc2ccc(OCc3ccccc3)cc2)nc1C	13.4	–	–
CCOC(=O)Cc1cc(=O)n2[nH]c(C)c(C#N)c2n1	-33.7	16.4 µM [falling, single point]	32.6 µM [falling, single point]
COc1ccc(N/C=C(\C#N)S(=O)(=O)c2ccc(Cl)cc2)c(OC)c1	8.02	0.13 µM [rising, full curve, poor fit]	–
O=C1c2ccccc2C(=O)N1C/C=C/CN1C(=O)c2ccccc2C1=O	-173	–	–
COCc1cc(C)nc(OCC(=O)N/N=C/c2ccc(O)cc2O)c1C#N	-0.425	–	0.58 µM [falling, single point]
Nc1c(C(=O)CSc2nncn2-c2ccccc2)c(=O)[nH]c(=O)n1C1CC1	-4.79	0.82 µM [rising, single point]	0.00517 µM [falling, full curve, poor fit]
Cc1ccc(-c2cc(C(=O)NCc3cnn(C)c3)c3cc(Br)ccc3n2)cc1	-23.9	29.1 µM [falling, single point]	–
O=C(O)c1ccc(NC(=O)C2C3CCC(O3)C2C(=O)O)cc1 (stereo not given)	-1.47	–	–
O=C(Nc1ccc(Cc2ccncc2)cc1)c1cc([N+](=O)[O-])ccc1N1CCOCC1	22.3	4.61 µM [rising, full curve]	–
O=C(Nc1ccc2c(c1)ncn2-c1ccccc1)c1ccco1	–	5.8 µM [rising, partial curve]	–
[O-][N+]12CCN(CC1)c1ccccc12	3.4	0.58 µM [falling, full curve]	–
CCOc1cc(/C=C/c2nc3cc(C)c(C)cc3s2)ccc1OCC(=O)N1CCOCC1	5.96	0.103 µM [falling, full curve, poor fit]	–
CC(C)(C)NC(=O)c1cc(NC(=O)c2cccs2)cc(NC(=O)c2cccs2)c1	9.01	6.51 µM [falling, single point]	–
CSc1nc(N)c2c(n1)OC(N)=C(C#N)C2c1cccnc1 (stereo not given)	42.4	–	18.4 µM [rising, single point]
Cc1cc(NC(=S)NC(=O)C2CC2)ccc1Br	-48.6	25.9 µM [falling, partial curve]	20.6 µM [falling, partial curve, poor fit]
CC(C)(C)OC(=O)[C@H](Cc1ccccc1)NC(=O)c1nc[nH]c1C(=O)N1CCc2ccccc2C1	15	29.1 µM [falling, single point]	–

Structures listed so far containing fluorine, in the order listed:
Structure (SMILES)	cell number change [%]	AC50 [1]	AC50 [2]
CN(CC(=O)Nc1cccc(F)c1)C(=O)c1ccc(C(=O)c2ccccc2)cc1	–	–	2.06 µM [rising, partial curve]
O=C(Nc1ccccc1C(=O)NCCCN1CCOCC1)c1ccc(F)cc1	-3.67	0.092 µM [rising, full curve, poor fit]	–
O=C(COC(=O)c1ccc(S(=O)(=O)NCc2ccco2)cc1)Nc1ccc(OC(F)F)cc1	42.8	2.91 µM [falling, partial curve]	32.6 µM [rising, single point]
Cc1nc2[nH]c(=O)c3c(n2n1)NC1=C(C(=O)CC(C)(C)C1)C3c1ccc(F)cc1 (stereo not given)	41	6.51 µM [rising, partial curve, poor fit]	16.4 µM [rising, single point]

(listing goes on)

Structure (SMILES)	cell number change [%]	AC50 [1]	AC50 [2]
CN(C1CCCCC1)S(=O)(=O)c1ccc(=S)[nH]c1	3.89	29.1 µM [falling, single point]	–
COc1cc(OC)cc(C(=O)Nc2ccccc2C(=O)NCc2cccnc2)c1	-19	6.51 µM [falling, single point]	–
C=CCN1C(=O)CS/C1=N\S(=O)(=O)c1ccc(Cl)cc1	18.3	2.31 µM [rising, partial curve, poor fit]	–
COc1ccc(S(=O)(=O)N(C)CC(=O)NCCN2CCOCC2)cc1	-17.1	0.631 µM [falling, partial curve, poor fit]	–
CCOc1ccccc1NC(=O)CSc1nc2c(c(=O)n(C)c(=O)n2C)n1C	19.7	18.4 µM [falling, single point]	–
CCOC(=O)C(C)/C(C)=N/NC(N)=S (stereo not given)	-0.94	–	–
COc1ccccc1C(=O)NC(=O)Nc1nc(-c2ccccc2)cc(C(F)(F)F)n1	19.3	4.11 µM [rising, full curve, poor fit]	–
Cc1ccc(NC(=S)N2CCN(S(C)(=O)=O)CC2)cc1	–	29.1 µM [rising, single point]	–
CCCCN(C(=O)c1ccco1)c1nnc(-c2cc(OC)c(OC)c(OC)c2)s1	-13.3	–	–
CCN(CC(=O)Nc1ccc2c(c1)OCCO2)C(=O)CCOc1ccccc1	5.18	–	–
CCc1ccccc1OCC(=O)Nc1cc(S(=O)(=O)N(CC)CC)ccc1N1CCOCC1	-5.26	11.6 µM [rising, partial curve, poor fit]	–
CCN(CC(=O)Nc1c(F)cccc1F)C(=O)c1ccc(N2C(=O)c3ccccc3C2=O)cc1	-80.3	5.8 µM [rising, partial curve]	29.1 µM [falling, single point]
Cc1cc(C)c(C#N)c(SCC(=O)c2ccc(Cl)cc2Cl)n1	45.8	5.8 µM [rising, single point]	–
O=C(Nc1ccccc1Br)C1CC(=O)N(c2ccc3c(c2)OCCO3)C1 (stereo not given)	-32.2	5.8 µM [falling, full curve, poor fit]	18.4 µM [falling, partial curve, poor fit]
Cc1cnn(-c2ccc3nnc(-c4ccc(Br)cc4)n3n2)c1	28	2.31 µM [rising, full curve]	–
Cc1ccccc1CSc1nnc(C)c(=O)n1N	-4.62	5.8 µM [rising, single point]	–
Cc1cc(S(=O)(=O)NCc2ccco2)c(C)cc1Cl	17.6	23.1 µM [rising, single point]	–
Nc1ccc(S(=O)(=O)Nc2nccc(/C=C/c3ccccc3F)n2)cc1	31.5	1.03 µM [rising, full curve]	1.3 µM [rising, full curve]
CN(Cc1ccc(F)cc1)Cc1nc(-c2ccccc2)no1	4.72	13 µM [rising, partial curve]	–
